Assay results taken from the supplement of paper PMC10849652.
This is one part of the list.

Protein sequences, listed by entry. Tags and fused reporters are not part of them. Lines headed by an entry give the natural chain unless they say otherwise; changes in a name come on top.
UniProt Q04759: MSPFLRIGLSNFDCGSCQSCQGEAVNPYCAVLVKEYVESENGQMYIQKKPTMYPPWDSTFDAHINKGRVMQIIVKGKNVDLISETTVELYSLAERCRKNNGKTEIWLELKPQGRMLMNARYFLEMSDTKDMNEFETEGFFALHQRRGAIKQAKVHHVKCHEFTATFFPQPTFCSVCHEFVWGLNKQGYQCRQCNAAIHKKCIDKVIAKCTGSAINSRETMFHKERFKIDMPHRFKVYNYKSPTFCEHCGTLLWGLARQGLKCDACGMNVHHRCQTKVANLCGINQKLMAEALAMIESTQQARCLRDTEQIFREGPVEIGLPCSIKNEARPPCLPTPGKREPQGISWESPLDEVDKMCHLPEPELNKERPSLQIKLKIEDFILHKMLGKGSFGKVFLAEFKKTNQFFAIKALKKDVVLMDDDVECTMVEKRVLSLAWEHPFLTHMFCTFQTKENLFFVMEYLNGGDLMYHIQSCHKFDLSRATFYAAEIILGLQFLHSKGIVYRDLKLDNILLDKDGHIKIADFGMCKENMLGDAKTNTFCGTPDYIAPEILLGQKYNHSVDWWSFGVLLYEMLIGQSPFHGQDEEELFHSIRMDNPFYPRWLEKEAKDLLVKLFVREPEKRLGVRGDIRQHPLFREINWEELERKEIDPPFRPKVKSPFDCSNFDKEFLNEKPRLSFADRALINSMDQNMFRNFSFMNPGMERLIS
UniProt Q9ULJ8: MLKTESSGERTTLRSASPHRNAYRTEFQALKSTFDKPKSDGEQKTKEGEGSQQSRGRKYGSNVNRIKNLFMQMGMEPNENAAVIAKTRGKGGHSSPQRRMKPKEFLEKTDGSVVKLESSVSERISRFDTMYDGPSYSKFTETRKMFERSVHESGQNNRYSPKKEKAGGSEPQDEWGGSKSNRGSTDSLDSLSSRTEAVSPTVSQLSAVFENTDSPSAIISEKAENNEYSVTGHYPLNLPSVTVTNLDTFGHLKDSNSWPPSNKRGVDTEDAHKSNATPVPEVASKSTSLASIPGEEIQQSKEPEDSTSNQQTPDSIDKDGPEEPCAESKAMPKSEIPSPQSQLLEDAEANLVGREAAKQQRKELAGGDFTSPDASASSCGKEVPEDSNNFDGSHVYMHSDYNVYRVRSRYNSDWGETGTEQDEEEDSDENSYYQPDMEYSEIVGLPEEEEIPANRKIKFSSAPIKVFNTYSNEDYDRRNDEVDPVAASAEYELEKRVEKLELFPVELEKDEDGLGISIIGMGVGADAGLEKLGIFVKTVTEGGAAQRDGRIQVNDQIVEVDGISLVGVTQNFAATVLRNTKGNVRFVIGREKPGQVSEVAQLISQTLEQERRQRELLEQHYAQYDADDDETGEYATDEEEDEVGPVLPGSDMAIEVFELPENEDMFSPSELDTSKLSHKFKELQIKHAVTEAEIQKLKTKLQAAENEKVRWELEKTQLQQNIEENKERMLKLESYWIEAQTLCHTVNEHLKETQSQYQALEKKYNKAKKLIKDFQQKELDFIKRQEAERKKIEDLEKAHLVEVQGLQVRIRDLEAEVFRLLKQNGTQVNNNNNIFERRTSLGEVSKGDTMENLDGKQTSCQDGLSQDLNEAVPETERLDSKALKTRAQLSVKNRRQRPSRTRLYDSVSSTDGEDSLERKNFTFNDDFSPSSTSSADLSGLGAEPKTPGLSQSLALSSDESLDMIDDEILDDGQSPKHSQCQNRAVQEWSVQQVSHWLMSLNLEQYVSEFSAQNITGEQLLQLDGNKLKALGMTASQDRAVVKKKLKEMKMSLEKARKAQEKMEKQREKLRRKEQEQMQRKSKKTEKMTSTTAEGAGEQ
UniProt P62140, whole entry, looked up: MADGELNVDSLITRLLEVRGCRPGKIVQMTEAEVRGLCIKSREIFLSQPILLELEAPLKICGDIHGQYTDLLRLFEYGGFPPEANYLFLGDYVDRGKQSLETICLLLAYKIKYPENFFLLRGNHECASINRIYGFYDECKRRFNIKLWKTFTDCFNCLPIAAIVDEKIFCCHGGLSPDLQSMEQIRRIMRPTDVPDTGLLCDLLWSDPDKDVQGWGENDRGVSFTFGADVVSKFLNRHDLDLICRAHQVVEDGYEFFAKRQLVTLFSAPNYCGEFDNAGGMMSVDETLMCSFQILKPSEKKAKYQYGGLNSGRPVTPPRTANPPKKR
UniProt P05771, whole entry, looked up: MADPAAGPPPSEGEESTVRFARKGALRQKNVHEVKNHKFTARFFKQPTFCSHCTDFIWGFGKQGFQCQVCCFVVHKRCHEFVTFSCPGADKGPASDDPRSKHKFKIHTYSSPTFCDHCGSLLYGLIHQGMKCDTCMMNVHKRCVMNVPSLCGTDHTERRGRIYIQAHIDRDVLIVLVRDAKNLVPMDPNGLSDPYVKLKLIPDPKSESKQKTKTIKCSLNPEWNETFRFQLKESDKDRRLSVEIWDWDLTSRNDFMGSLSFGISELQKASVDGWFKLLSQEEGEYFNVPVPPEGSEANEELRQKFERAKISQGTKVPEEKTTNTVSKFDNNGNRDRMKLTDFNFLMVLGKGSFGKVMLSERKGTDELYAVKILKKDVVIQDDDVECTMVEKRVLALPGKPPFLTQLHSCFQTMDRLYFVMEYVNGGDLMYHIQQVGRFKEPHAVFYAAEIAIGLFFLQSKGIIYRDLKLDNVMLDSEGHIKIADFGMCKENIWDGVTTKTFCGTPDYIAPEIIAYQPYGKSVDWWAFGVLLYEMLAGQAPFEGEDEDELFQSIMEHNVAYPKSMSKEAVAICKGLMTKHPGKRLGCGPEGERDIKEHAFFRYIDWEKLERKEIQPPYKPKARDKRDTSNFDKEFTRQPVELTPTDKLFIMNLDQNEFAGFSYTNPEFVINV
UniProt P36873, whole entry, looked up: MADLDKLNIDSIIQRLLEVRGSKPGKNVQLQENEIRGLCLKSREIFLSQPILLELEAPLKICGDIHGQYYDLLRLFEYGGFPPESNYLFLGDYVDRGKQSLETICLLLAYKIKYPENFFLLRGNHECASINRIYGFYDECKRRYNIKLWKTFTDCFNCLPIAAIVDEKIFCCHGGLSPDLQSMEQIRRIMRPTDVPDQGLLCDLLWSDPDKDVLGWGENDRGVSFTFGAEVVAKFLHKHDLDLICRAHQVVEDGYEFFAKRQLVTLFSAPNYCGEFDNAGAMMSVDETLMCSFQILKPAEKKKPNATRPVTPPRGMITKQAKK
UniProt P48454, whole entry, looked up: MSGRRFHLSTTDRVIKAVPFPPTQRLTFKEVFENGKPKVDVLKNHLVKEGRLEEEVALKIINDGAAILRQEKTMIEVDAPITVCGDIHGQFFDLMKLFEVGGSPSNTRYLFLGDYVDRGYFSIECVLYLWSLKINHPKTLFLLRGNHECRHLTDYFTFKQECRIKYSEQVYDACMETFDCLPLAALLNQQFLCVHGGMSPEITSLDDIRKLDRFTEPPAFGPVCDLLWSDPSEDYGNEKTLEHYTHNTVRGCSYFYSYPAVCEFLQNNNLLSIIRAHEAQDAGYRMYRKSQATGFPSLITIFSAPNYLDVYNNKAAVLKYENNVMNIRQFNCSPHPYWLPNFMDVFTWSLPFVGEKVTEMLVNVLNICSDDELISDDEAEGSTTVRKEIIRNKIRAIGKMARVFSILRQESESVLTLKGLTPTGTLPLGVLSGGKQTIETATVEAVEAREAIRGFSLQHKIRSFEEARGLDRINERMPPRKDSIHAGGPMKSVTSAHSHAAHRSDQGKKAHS
UniProt K7ELL7: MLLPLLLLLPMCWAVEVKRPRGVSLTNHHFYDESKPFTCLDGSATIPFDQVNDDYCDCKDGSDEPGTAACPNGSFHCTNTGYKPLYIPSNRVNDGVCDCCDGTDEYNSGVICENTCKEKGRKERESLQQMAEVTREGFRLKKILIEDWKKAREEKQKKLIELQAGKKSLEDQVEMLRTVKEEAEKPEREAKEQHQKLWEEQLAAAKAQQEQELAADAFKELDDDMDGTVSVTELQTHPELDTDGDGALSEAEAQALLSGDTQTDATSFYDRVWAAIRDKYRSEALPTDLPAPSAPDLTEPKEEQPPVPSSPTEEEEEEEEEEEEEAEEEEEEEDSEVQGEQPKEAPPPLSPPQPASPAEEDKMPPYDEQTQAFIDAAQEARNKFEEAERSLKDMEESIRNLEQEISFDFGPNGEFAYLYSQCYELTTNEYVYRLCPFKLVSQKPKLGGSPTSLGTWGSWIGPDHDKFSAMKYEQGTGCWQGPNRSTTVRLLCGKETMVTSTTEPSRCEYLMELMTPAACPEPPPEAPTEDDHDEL
UniProt O14744, whole entry, looked up: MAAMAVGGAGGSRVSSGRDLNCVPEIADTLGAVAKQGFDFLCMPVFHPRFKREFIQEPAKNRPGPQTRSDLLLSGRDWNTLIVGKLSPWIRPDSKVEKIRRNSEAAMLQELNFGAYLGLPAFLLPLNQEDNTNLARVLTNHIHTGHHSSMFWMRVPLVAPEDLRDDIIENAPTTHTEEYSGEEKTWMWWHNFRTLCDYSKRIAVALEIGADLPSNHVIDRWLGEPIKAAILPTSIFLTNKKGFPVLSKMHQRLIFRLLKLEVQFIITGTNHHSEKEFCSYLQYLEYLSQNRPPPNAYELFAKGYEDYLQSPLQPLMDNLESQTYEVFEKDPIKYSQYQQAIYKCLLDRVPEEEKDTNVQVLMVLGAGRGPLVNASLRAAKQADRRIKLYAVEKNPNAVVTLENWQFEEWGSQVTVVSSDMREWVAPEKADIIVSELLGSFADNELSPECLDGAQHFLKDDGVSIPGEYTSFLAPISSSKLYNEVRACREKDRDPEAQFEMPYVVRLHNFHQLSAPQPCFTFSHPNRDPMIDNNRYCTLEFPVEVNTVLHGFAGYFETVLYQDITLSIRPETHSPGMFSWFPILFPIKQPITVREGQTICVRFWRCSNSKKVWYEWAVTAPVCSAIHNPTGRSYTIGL
UniProt O75569: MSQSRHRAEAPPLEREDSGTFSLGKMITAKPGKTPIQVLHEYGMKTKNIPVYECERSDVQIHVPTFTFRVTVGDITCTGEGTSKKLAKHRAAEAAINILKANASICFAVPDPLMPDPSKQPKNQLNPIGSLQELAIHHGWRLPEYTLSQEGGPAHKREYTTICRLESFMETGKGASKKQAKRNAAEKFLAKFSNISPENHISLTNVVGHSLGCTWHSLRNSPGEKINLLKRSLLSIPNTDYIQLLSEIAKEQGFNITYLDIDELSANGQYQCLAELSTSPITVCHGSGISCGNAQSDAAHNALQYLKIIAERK
UniProt Q05655: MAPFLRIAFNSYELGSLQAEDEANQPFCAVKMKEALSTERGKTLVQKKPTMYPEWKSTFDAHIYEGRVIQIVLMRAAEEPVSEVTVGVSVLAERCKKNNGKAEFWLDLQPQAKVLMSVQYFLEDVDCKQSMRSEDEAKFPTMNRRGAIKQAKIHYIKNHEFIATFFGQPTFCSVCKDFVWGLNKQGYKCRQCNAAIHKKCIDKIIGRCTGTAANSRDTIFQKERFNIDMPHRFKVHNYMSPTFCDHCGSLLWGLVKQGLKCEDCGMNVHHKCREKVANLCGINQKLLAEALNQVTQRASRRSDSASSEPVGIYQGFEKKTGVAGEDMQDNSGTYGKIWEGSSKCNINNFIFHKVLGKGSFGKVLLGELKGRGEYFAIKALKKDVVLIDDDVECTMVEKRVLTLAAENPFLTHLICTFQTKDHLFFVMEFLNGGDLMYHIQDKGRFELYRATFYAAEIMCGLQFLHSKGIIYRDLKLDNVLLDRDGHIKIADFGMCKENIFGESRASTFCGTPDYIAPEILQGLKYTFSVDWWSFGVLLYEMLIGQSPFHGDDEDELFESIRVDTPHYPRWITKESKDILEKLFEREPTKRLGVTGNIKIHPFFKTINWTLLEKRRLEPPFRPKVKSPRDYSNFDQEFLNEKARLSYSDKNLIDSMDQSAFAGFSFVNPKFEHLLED
UniProt Q9UMR5: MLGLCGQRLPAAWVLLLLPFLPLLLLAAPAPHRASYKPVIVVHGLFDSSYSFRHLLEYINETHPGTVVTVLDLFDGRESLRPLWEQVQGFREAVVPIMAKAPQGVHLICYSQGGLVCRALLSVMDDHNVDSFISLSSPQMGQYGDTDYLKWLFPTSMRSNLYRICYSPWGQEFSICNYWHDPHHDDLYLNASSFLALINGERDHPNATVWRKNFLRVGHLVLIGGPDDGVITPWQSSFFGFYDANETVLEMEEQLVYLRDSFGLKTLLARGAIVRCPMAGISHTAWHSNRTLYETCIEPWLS
UniProt P53041: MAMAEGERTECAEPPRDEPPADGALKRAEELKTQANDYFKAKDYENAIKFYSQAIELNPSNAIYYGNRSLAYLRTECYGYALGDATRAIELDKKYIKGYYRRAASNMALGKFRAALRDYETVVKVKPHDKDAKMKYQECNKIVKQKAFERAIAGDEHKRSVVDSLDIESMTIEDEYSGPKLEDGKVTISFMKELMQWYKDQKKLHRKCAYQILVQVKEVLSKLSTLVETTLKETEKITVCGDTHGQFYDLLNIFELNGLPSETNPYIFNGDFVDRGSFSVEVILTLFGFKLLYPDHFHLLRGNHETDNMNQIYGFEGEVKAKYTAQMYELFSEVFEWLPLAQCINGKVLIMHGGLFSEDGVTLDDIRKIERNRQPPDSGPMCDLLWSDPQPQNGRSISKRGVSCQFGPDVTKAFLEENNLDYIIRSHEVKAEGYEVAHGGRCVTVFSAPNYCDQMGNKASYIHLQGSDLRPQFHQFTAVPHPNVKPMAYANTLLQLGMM

Columns and labels:
Assay in all cases: log2 fold change, soluble protein after heating vs DMSO (PISA); higher = thermal stabilisation; K562 lysate, 10 uM; active = over 0.2 and 3.5 SD of the protein, either way, in both replicates (recomputed)
erlotinib = compound: C#Cc1cccc(Nc2ncnc3cc(OCCOC)c(OCCOC)cc23)c1 [erlotinib]
Summary of the method: (§1)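 Quantification was by TMTpro 16plex LC-MS/MS with equalised channel sums, applied to the supernatant after 21,000xg for 90 min. Samples were crude K562 extract at 1 mg/mL protein in PBS pH 7.4 with 1 mM MgCl2, treated with 10 μM compound for 30 min, heated for 3 min across 48°C-58°C, pooled and brought to 0.5% NP-40 at 4°C. Values are log-two fold changes in thermal stability relative to solvent controls, from duplicates.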

[1] = compound: C/C(=N\NC(=O)C1=CC(=CC=C1)S(=O)(=O)N2CCOCC2)/C3=C(C=CC(=C3)Cl)O
Summary of the method: as §1

[2] = compound: C1=CC(=CC=C1C2=NC3=C(N2)C=C(C=C3)C(=O)N)OC4=CC=C(C=C4)Cl
Summary of the method: as §1

[3] = compound: C1=CC2=C(C=CC(=C2)/C=C\3/C(=O)NC(=NCC4=CC=CS4)S3)N=C1
Summary of the method: as §1

[4] = compound: C1=CC2=NC=CN=C2C=C1/C=C/3\C(=O)NC(=O)S3
Summary of the method: as §1

[5] = compound: C1=CC=C(C=C1)C2=NC(=C(N2)C3=CC=NC=C3)C4=CC(=C(C=C4)Cl)O
Summary of the method: as §1

[6] = compound: C1=CC=C2C(=C1)C3=NNC4=CC=CC(=C43)C2=O
Summary of the method: as §1

[7] = compound: C1CCN(C1)C(=O)NC2=CC=CC(=C2)NC3=NC=C(C(=N3)NCCC4=CN=CN4)Br
Summary of the method: as §1

[8] = compound: C1CN(CCC1(CC2=CC=C(C=C2)Cl)N)C3=NC=NC4=C3C=CN4
Summary of the method: as §1

IRAK-1-4 Inhibitor I = compound: C1COCCN1CCN2C3=CC=CC=C3N=C2NC(=O)C4=CC(=CC=C4)[N+](=O)[O-] [IRAK-1-4 Inhibitor I]
Summary of the method: as §1

ibrutinib = compound: C=CC(=O)N1CCC[C@@H](n2nc(-c3ccc(Oc4ccccc4)cc3)c3c(N)ncnc32)C1 [ibrutinib]
Summary of the method: as §1

[9] = compound: CC(=O)c1cnc2ccc(-c3cc(Cl)c(O)c(Cl)c3)nc2c1N[C@H]1CC[C@H](CN(C)C)CC1
Summary of the method: as §1

ralimetinib = compound: CC(C)(C)Cn1c(N)nc2ccc(-c3[nH]c(C(C)(C)C)nc3-c3ccc(F)cc3)nc21 [ralimetinib]
Summary of the method: as §1

[10] = compound: CC(C)(O)CC(=O)NCCn1ccc2ncnc(Nc3ccc(Oc4cccc(C(F)(F)F)c4)c(Cl)c3)c21
Summary of the method: as §1

[11] = compound: CC(C)C1=C2N=C(C=C(N2N=C1)NCC3=CC=CC=C3)NCCCCCCN
Summary of the method: as §1

[12] = compound: CC1=C(C(CC(=O)N1)C2=CC=C(C=C2)C(F)(F)F)C(=O)NC3=C(C=C4C(=C3)C=NN4)F
Summary of the method: as §1

[13] = compound: CC1=C(C2=C(C=C1)C(=O)C3=CC=CC=C3N2CCCN)C
Summary of the method: as §1

[14] = compound: CC1=C(C=C(C=C1)NC(=O)C2=CC(=CC=C2)C(C)(C)C#N)NC3=CC4=C(C=C3)N=CN(C4=O)C
Summary of the method: as §1

[15] = compound: CC1=C(C=C(C=C1)NC(=O)C2=CC(=CC=C2)N(C)C)NC(=O)C3=CC=C(C=C3)O
Summary of the method: as §1

[16] = compound: CC1=CC=C(C=C1)SC2=C3C=C(SC3=CN=C2)C(=O)N
Summary of the method: as §1

Measured: log2 fold change

PPP3CA isoform 2 (UniProt Q08209)
inactive: erlotinib -0.005 | [1] -0.037 | [2] 0.045 | [3] -0.036 | [4] -0.014 | [5] 0.014 | [6] -0.006 | [7] 0.082 | [8] -0.026 | IRAK-1-4 Inhibitor I -0.01 | ibrutinib 0.017 | [9] 0.012 | ralimetinib -0.01 | [10] -0.052 | [11] -0.014 | [12] 0 | [13] -0.03 | [14] 0.03 | [15] 0.028 | [16] -0.012

PRKCQ (UniProt Q04759)
inactive: erlotinib -0.004 | [1] -0.013 | [2] 0.005 | [3] 0.001 | [4] -0.035 | [5] 0.022 | [6] -0.057 | [7] -0.072 | [8] 0.026 | IRAK-1-4 Inhibitor I -0.026 | ibrutinib 0.011 | [9] 0.167 | ralimetinib -0.022 | [10] 0.058 | [11] 0.012 | [12] -0.01 | [13] 0.014 | [14] 0.02 | [15] 0.058 | [16] 0.037

PPP1R9A isoform 3 (UniProt Q9ULJ8)
inactive: erlotinib 0.009 | [1] -0.152 | [2] -0.002 | [3] 0.017 | [4] -0.046 | [5] -0.078 | [6] -0.136 | [7] -0.062 | [8] 0.105 | IRAK-1-4 Inhibitor I 0.048 | ibrutinib 0.04 | [9] -0.053 | ralimetinib -0.065 | [10] -0.011 | [11] -0.058 | [12] -0.02 | [13] -0.066 | [14] 0.022 | [15] -0.043 | [16] -0.004

PRCC (UniProt Q92733)
inactive: erlotinib -0.015 | [1] -0.064 | [2] 0.066 | [3] -0.01 | [4] -0.018 | [5] -0.009 | [6] 0.028 | [7] -0.005 | [8] -0.001 | IRAK-1-4 Inhibitor I 0.005 | ibrutinib 0.044 | [9] -0.008 | ralimetinib -0.02 | [10] -0.019 | [11] 0.015 | [12] 0.039 | [13] -0.01 | [14] 0.065 | [15] 0 | [16] -0.03

PPP1CB (UniProt P62140)
inactive: erlotinib -0.002 | [1] 0.019 | [2] 0.022 | [3] 0.012 | [4] -0.068 | [5] 0.003 | [6] 0.014 | [7] 0.005 | [8] -0.046 | IRAK-1-4 Inhibitor I -0.007 | ibrutinib -0.003 | [9] -0.014 | ralimetinib 0.049 | [10] 0.006 | [11] -0.011 | [12] -0.014 | [13] -0.009 | [14] -0.04 | [15] 0.008 | [16] -0.008

PPP3CB (UniProt P16298)
inactive: erlotinib -0.047 | [1] 0.026 | [2] 0.019 | [3] -0.018 | [4] 0.011 | [5] 0.013 | [6] 0.04 | [7] -0.035 | [8] -0.032 | IRAK-1-4 Inhibitor I 0.011 | ibrutinib -0.02 | [9] -0.022 | ralimetinib 0.072 | [10] -0.026 | [11] -0.032 | [12] 0.034 | [13] -0.024 | [14] 0.022 | [15] -0.009 | [16] 0.016

PPM1F (UniProt P49593)
inactive: erlotinib -0.013 | [1] 0.001 | [2] -0.048 | [3] 0.022 | [4] 0.001 | [5] -0.047 | [6] 0.005 | [7] 0.012 | [8] -0.015 | IRAK-1-4 Inhibitor I 0.007 | ibrutinib -0.009 | [9] 0.012 | ralimetinib -0.005 | [10] 0.028 | [11] -0.027 | [12] 0 | [13] -0.008 | [14] -0.004 | [15] -0.049 | [16] 0.015

PRKCB isoform 2 (UniProt P05771)
inactive: erlotinib 0.053 | [1] -0.191 | [2] 0.07 | [3] -0.043 | [4] -0.004 | [5] -0.064 | [6] -0.12 | [7] -0.149 | [8] 0.019 | IRAK-1-4 Inhibitor I -0.02 | ibrutinib -0.017 | ralimetinib 0.02 | [10] 0 | [11] 0.013 | [12] 0.002 | [13] -0.055 | [14] 0.042 | [15] -0.009 | [16] -0.113
active: [9] 0.548

PPP1CC isoform 2 (UniProt P36873)
inactive: erlotinib -0.007 | [1] -0.018 | [2] 0.039 | [3] -0.006 | [4] 0.004 | [5] -0.003 | [6] -0.015 | [7] -0.009 | [8] 0.012 | IRAK-1-4 Inhibitor I -0.001 | ibrutinib 0.021 | [9] 0.005 | ralimetinib 0.018 | [10] 0.005 | [11] -0.035 | [12] -0.001 | [13] -0.034 | [14] -0.013 | [15] -0.001 | [16] 0.002

PPP3CC (UniProt P48454)
inactive: erlotinib -0.032 | [1] -0.019 | [2] -0.037 | [3] -0.068 | [4] 0 | [5] -0.051 | [6] 0.012 | [7] -0.044 | [8] -0.042 | IRAK-1-4 Inhibitor I -0.03 | ibrutinib 0.019 | [9] 0.002 | ralimetinib 0.04 | [10] -0.056 | [11] 0.008 | [12] -0.067 | [13] 0.015 | [14] 0.051 | [15] -0.021 | [16] 0.022

PRKCSH (UniProt K7ELL7)
inactive: erlotinib -0.01 | [1] -0.124 | [2] 0.004 | [3] -0.056 | [4] 0 | [5] -0.036 | [6] -0.061 | [7] -0.096 | [8] -0.038 | IRAK-1-4 Inhibitor I -0.039 | ibrutinib -0.05 | [9] 0.018 | ralimetinib 0.049 | [10] -0.051 | [11] 0.049 | [12] 0.006 | [13] -0.017 | [14] -0.019 | [15] 0.005 | [16] -0.052

PRMT5 (UniProt O14744)
inactive: erlotinib 0.002 | [1] 0 | [2] 0.032 | [3] 0.006 | [4] 0.007 | [5] 0.017 | [6] 0.017 | [7] 0.012 | [8] 0.019 | IRAK-1-4 Inhibitor I 0.003 | ibrutinib 0.004 | [9] -0.002 | ralimetinib -0.015 | [10] 0.004 | [11] -0.004 | [12] -0.015 | [13] -0.008 | [14] 0.001 | [15] -0.01 | [16] 0.022

PRKRA (UniProt O75569)
inactive: erlotinib 0.016 | [1] -0.1 | [2] -0.061 | [3] -0.01 | [4] 0.08 | [5] 0.012 | [6] -0.012 | [7] -0.074 | [8] 0.018 | IRAK-1-4 Inhibitor I 0.033 | ibrutinib -0.043 | [9] -0.01 | ralimetinib 0.035 | [10] 0.011 | [11] 0.013 | [12] 0.045 | [13] -0.038 | [14] 0.002 | [15] 0.056 | [16] 0.019

PRKCD (UniProt Q05655)
inactive: erlotinib -0.041 | [1] 0.016 | [2] -0.035 | [3] -0.047 | [4] -0.01 | [5] 0.006 | [6] -0.023 | [7] -0.069 | [8] 0.019 | IRAK-1-4 Inhibitor I 0.013 | ibrutinib 0.021 | [9] 0.162 | ralimetinib 0.01 | [10] -0.005 | [11] 0.006 | [12] 0.027 | [13] -0.012 | [14] -0.004 | [15] 0.038 | [16] 0.04

PPT2 isoform 3 (UniProt Q9UMR5)
inactive: erlotinib 0.038 | [1] -0.113 | [2] 0.001 | [3] 0.014 | [4] -0.012 | [5] -0.057 | [6] 0.042 | [7] 0.01 | [8] 0.043 | IRAK-1-4 Inhibitor I 0.122 | ibrutinib 0.03 | [9] 0.068 | ralimetinib -0.001 | [10] -0.022 | [11] -0.019 | [12] -0.026 | [13] 0.002 | [14] -0.038 | [15] -0.015 | [16] -0.013

PPP5C (UniProt P53041)
inactive: erlotinib -0.013 | [1] -0.007 | [2] 0.04 | [3] 0.005 | [4] -0.005 | [5] 0.001 | [6] 0.038 | [7] 0.005 | [8] 0.005 | IRAK-1-4 Inhibitor I 0.004 | ibrutinib -0.003 | [9] -0.01 | ralimetinib 0.006 | [10] -0.025 | [11] 0.012 | [12] -0.015 | [13] -0.006 | [14] 0.023 | [15] -0.004 | [16] -0.004
